{
  "sequences": {"note": "By UniProt entry, the sequences of proteins in these tests, tags left out. Residues count along the entry.", "UniProt P98170, 252-350": "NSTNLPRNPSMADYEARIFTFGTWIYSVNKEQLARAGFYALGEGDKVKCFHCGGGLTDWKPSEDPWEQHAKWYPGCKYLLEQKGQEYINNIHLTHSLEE", "UniProt Q13490, 267-363": "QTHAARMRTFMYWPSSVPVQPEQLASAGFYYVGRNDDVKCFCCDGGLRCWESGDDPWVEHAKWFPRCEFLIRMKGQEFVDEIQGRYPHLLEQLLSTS"},
  "source": "patent US9980973B2",
  "about": "“Bicyclic heterocycle compounds and their uses in therapy” (ASTEX THERAPEUTICS LIMITED, priority 2012, dated 2018)",
  "key": {"[1]": {"target": "T1, BIR3 domain of human XIAP (Homo sapiens, UniProt P98170)", "T1 construct": "BIR3 domain of human XIAP (residues 252-350) fused to a His-tag; His-tag (cleaved yes); made in house; host or cells: Escherichia coli", "test": "XIAP in vitro competitive displacement binding assay (fluorescence polarization)"}, "[2]": {"target": "T2, BIR3 domain of human cIAP-1 (Homo sapiens, UniProt Q13490)", "T2 construct": "human cIAP-1 (residues 267-363) fused to a GST-tag; GST-tag (cleaved yes); made in house; host or cells: Escherichia coli", "test": "cIAP-1 in vitro competitive displacement binding assay (fluorescence polarization)", "settings": "or at least 50% inhibition of the activity at 0.1 μM; read-out: IC50 in the cIAP1 assay"}, "[3]": {"settings": "or at least 50% inhibition of the activity at 1 μM"}, "[4]": {"settings": "or at least 50% inhibition of the activity at 0.1 μM"}},
  "note": "Counter-ions that a name gives are not always drawn. Some entries share one result that the patent states for a list of compounds.",
  "data": [
    {"smiles": "CO[C@@H]1CN(C[C@H]2CN[C@H](C)CN2CC(=O)N2CC(C)(C)c3ncc(Cc4ccc(F)cc4)cc32)C[C@@H]1F", "note": "(mixture of isomers) [Example 41]", "values": [
      {"measurement": "IC50", "setting": "[1]; [3]", "value": "< 1000", "unit": "nM"},
      {"measurement": "IC50", "setting": "[2]", "value": "< 100", "unit": "nM"}
    ]},
    {"smiles": "C[C@@H]1CN(CC(=O)N2CC(C)(C)c3cnc(Cc4ccc(F)cc4F)cc32)[C@@H](CN2CCOC[C@]2(C)CO)CN1", "note": "(single isomer, unassigned) [Example 66, dihydrochloride]", "values": [
      {"measurement": "IC50", "setting": "[1]; [4]", "value": "< 100", "unit": "nM"},
      {"measurement": "IC50", "setting": "[2]", "value": "< 100", "unit": "nM"}
    ]},
    {"smiles": "C[C@@H]1CN(CC(=O)N2CC(C)(C)c3cnc(Cc4ccc(F)cc4F)cc32)[C@@H](CN2CCOC[C@@]2(C)CO)CN1", "note": "(single isomer, unassigned) [Example 67, dihydrochloride]", "values": [
      {"measurement": "IC50", "setting": "[1]; [4]", "value": "< 100", "unit": "nM"},
      {"measurement": "IC50", "setting": "[2]", "value": "< 100", "unit": "nM"}
    ]},
    {"smiles": "CCCC(F)(F)c1cc2c(cn1)C(C)(C)CN2C(=O)CN1C[C@@H](C)NC[C@@H]1CN1CCOC[C@@]1(C)CO", "note": "(single isomer, unassigned) [Example 68, dihydrochloride]", "values": [
      {"measurement": "IC50", "setting": "[1]; [4]", "value": "< 100", "unit": "nM"},
      {"measurement": "IC50", "setting": "[2]", "value": "< 100", "unit": "nM"}
    ]},
    {"smiles": "CCCC(F)(F)c1cc2c(cn1)C(C)(C)CN2C(=O)CN1C[C@@H](C)NC[C@@H]1CN1CCOC[C@]1(C)CO", "note": "(single isomer, unassigned) [Example 69, dihydrochloride]", "values": [
      {"measurement": "IC50", "setting": "[1]; [4]", "value": "< 100", "unit": "nM"},
      {"measurement": "IC50", "setting": "[2]", "value": "< 100", "unit": "nM"}
    ]},
    {"smiles": "C[C@@H]1CN(CC(=O)N2CC(C)(C)c3ncc(C(O)c4cccc(F)c4)cc32)[C@@H](CN2[C@H](C)COC[C@H]2C)CN1", "note": "(single isomer, unassigned) [Example 105, 2-[(2R,5R)-2-{[(3R,5R)-3,5-Dimethylmorpholin-4-yl]methyl}-5-methylpiperazin-1-yl]-1-{6-[(R or S)-(3-fluorophenyl)-(hydroxy)methyl]-3,3-dimethyl-1H,2H,3H-pyrrolo[3,2-b]pyridin-1-yl}ethan-1-one dihydrochloride]", "values": [
      {"measurement": "IC50", "setting": "[1]; [4]", "value": "< 100", "unit": "nM"},
      {"measurement": "IC50", "setting": "[2]", "value": "< 100", "unit": "nM"}
    ]},
    {"smiles": "C[C@@H]1CN(CC(=O)N2CC(C)(C)c3ncc(C(O)c4ccccc4F)cc32)[C@@H](CN2[C@H](C)COC[C@H]2C)CN1", "note": "(single isomer, unassigned) [Example 107, 2-[(2R,5R)-2-{[(3R,5R)-3,5-Dimethylmorpholin-4-yl]methyl}-5-methylpiperazin-1-yl]-1-{6-[(R or S)-(2-fluorophenyl)-(hydroxy)methyl]-3,3-dimethyl-1H,2H,3H-pyrrolo[3,2-b]pyridin-1-yl}ethan-1-one dihydrochloride]", "values": [
      {"measurement": "IC50", "setting": "[1]; [4]", "value": "< 100", "unit": "nM"},
      {"measurement": "IC50", "setting": "[2]", "value": "< 100", "unit": "nM"}
    ]},
    {"smiles": "C[C@@H]1CN(CC(=O)N2CC(C)(C)c3ncc(C(O)c4c(F)cccc4F)cc32)[C@@H](CN2[C@H](C)COC[C@H]2C)CN1", "note": "(single isomer, unassigned) [Example 117, 1-{(R or S)-6-[(2,6-Difluorophenyl)(hydroxy)meth-yl]-3,3-dimethyl-1H,2H,3H-pyrrolo[3,2-]pyridin-1-yl}-2-[(2R,5R)-2-{[(3R,5R)-3,5-dimethylmorpholin-4-yl]methyl}-5-methylpiperazin-1-yl]ethan-1-one dihydrochloride]", "values": [
      {"measurement": "IC50", "setting": "[1]; [3]", "value": "< 1000", "unit": "nM"},
      {"measurement": "IC50", "setting": "[2]", "value": "< 100", "unit": "nM"}
    ]},
    {"smiles": "C[C@@H]1CN(CC(=O)N2CC(C)(C)c3ncc(Cc4ccc(F)cc4)cc32)[C@@H](CN2CC3CC2CO3)CN1", "note": "(stereo partly drawn) [Example 20, 1-{6-[(4-Fluorophenyl)methyl]-3,3-dimethyl-1H,2H,3H-pyrrolo[3,2-b]pyridin-1-yl}-2-[(2R,5R)-5-methyl-2-{2-oxa-5-azabicyclo[2.2.1]heptan-5-ylmethyl}piperazin-1-yl]ethan-1-one dihydrochloride]", "values": [
      {"measurement": "IC50", "setting": "[1]; [3]", "value": "< 1000", "unit": "nM"}
    ]},
    {"smiles": "C[C@@H]1CN(CC(=O)N2CC(C)(C)c3ncc(Cc4ccc(F)cc4)cc32)[C@@H](CN2CCC[C@@H]2C(F)(F)F)CN1", "note": "[Example 38, 1-{6-[(4-Fluorophenyl)methyl]-3,3-dimethyl-1H,2H,3H-pyrrolo[3,2-b]pyridin-1-yl}-2-[(2R,5R)-5-methyl-2-{[(2R)-2-(trifluoromethyl)pyrrolidin-1-yl]methyl}piperazin-1-yl]ethan-1-one]", "values": [
      {"measurement": "IC50", "setting": "[2]", "value": "< 100", "unit": "nM"}
    ]},
    {"smiles": "C[C@@H]1CN(CC(=O)N2CC(C)(C)c3ncc(Cc4ccc(F)cc4)cc32)[C@@H](CN2CCCNC(=O)C2)CN1", "note": "[Example 46, 4-{[(2R,5R)-1-(2-{6-[(4-Fluorophenyl)methyl]-3,3-dimethyl-1H,2H,3H-pyrrolo[3,2-b]pyridin-1-yl}-2-oxoethyl)-5-methylpiperazin-2-yl]methyl}-1,4-diazepan-2-one, dihydrochloride]", "values": [
      {"measurement": "IC50", "setting": "[2]", "value": "< 100", "unit": "nM"}
    ]},
    {"smiles": "C[C@@H]1CN(CC(=O)N2CC(C)(C)c3ncc(Cc4ccc(F)cc4)cc32)[C@@H](CN2CCOC[C@]2(C)CO)CN1", "note": "[Example 50, 1-{6-[(4-Fluorophenyl)methyl]-3,3-dimethyl-1H,2H,3H-pyrrolo[3,2-b]pyridin-1-yl}-2-[(2R,5R)-2-{[(3S)-3-(hydroxymethyl)-3-methylmorpholin-4-yl]methyl}-5-methylpiperazin-1-yl]ethan-1-one, dihydrochloride]", "values": [
      {"measurement": "IC50", "setting": "[2]", "value": "< 100", "unit": "nM"}
    ]},
    {"smiles": "C[C@@H]1CN(CC(=O)N2CC(C)(C)c3ncc(Cc4ccc(F)cc4)cc32)[C@@H](CN2CCOC[C@@]2(C)CO)CN1", "note": "[Example 51, 1-{6-[(4-Fluorophenyl)methyl]-3,3-dimethyl-1H,2H,3H-pyrrolo[3,2-b]pyridin-1-yl}-2-[(2R,5R)-2-{[(3R)-3-(hydroxymethyl)-3-methylmorpholin-4-yl]methyl}-5-methylpiperazin-1-yl]ethan-1-one, dihydrochloride]", "values": [
      {"measurement": "IC50", "setting": "[2]", "value": "< 100", "unit": "nM"}
    ]},
    {"smiles": "CC(=O)N1CCN(C[C@H]2CN[C@H](C)CN2CC(=O)N2CC(C)(C)c3ncc(Cc4ccc(F)cc4)cc32)[C@H](C)C1", "note": "[Example 52, 2-[(2R,5R)-2-{[(2R)-4-Acetyl-2-methylpiperazin-1-yl]methyl}-5-methylpiperazin-1-yl]-1-{6-[(4-fluorophenyl)methyl]-3,3-dimethyl-1H,2H,3H-pyrrolo[3,2-b]pyridin-1-yl}ethan-1-one, dihydrochloride]", "values": [
      {"measurement": "IC50", "setting": "[2]", "value": "< 100", "unit": "nM"}
    ]},
    {"smiles": "C[C@@H]1CN(CC(=O)N2CC(C)(C)c3ncc(Cc4ccc(F)cc4F)cc32)[C@@H](CN2CCOC[C@]2(C)CO)CN1", "note": "[Example 57, 1-{6-[(2,4-Difluorophenyl)methyl]-3,3-dimethyl-1H,2H,3H-pyrrolo[3,2-b]pyridin-1-yl}-2-[(2R,5R)-2-{[(3S)-3-(hydroxymethyl)-3-methylmorpholin-4-yl]methyl}-5-methylpiperazin-1-yl]ethan-1-one, dihydrochloride]", "values": [
      {"measurement": "IC50", "setting": "[2]", "value": "< 100", "unit": "nM"}
    ]},
    {"smiles": "C[C@@H]1CN(CC(=O)N2CC(C)(C)c3ncc(Cc4ccc(F)cc4F)cc32)[C@@H](CN2CCOC[C@@]2(C)CO)CN1", "note": "[Example 58, 1-{6-[(2,4-Difluorophenyl)methyl]-3,3-dimethyl-1H,2H,3H-pyrrolo[3,2-b]pyridin-1-yl}-2-[(2R,5R)-2-{[(3R)-3-(hydroxymethyl)-3-methylmorpholin-4-l]methyl}-5-methylpiperazin-1-yl]ethan-1-one, dihydrochloride]", "values": [
      {"measurement": "IC50", "setting": "[2]", "value": "< 100", "unit": "nM"}
    ]},
    {"smiles": "C[C@@H]1CN(CC(=O)N2CC(C)(C)c3ncc(Cc4ccc(F)cc4)cc32)[C@@H](CN2CCOCC2(C)C(=O)O)CN1", "note": "(stereo partly drawn) [Example 59, 4-{[(2R,5R)-1-(2-{6-[(4-Fluorophenyl)methyl]-3,3-dimethyl-1H,2H,3H-pyrrolo[3,2-b]pyridin-1-yl}-2-oxoethyl)-5-methylpiperazin-2-yl]methyl}-3-methylmorpholine-3-carboxylic acid, dihydrochloride]", "values": [
      {"measurement": "IC50", "setting": "[2]", "value": "< 100", "unit": "nM"}
    ]},
    {"smiles": "C[C@@H]1CN(CC(=O)N2CC(C)(C)c3ncc(Cc4ccc(F)cc4)cc32)[C@@H](CN2CCn3cnnc3C2)CN1", "note": "[Example 71, 1-{6-[(4-Fluorophenyl)methyl]-3,3-dimethyl-1H,2H,3H-pyrrolo[3,2-b]pyridin-1-yl}-2-[(2R,5R)-5-methyl-2-{5H, 6H, 7H, 8H-[1,2,4]triazolo[4,3-a]pyrazin-7-ylmethyl}piperazin-1-yl]ethan-1-one dihydrochloride]", "values": [
      {"measurement": "IC50", "setting": "[2]", "value": "< 100", "unit": "nM"}
    ]},
    {"smiles": "C[C@@H]1CN(CC(=O)N2CC(C)(C)c3nnc(Cc4ccc(F)cc4F)cc32)[C@@H](CN2[C@H](C)COC[C@H]2C)CN1", "note": "[Example 88, 1-{3-[(2,4-Difluorophenyl)methyl]-7,7-dimethyl-5H,6H,7H-pyrrolo[3,2-c]pyridazin-5-yl}-2-[(2R,5R)-2-{[(3R,5R)-3,5-dimethymorpholin-4-yl]methyl}-5-methylpiperazin-1-yl]ethan-1-one dihydrochloride]", "values": [
      {"measurement": "IC50", "setting": "[2]", "value": "< 100", "unit": "nM"}
    ]},
    {"smiles": "CCCC(O)c1cc2c(cn1)C(C)(C)CN2C(=O)CN1C[C@@H](C)NC[C@@H]1CN1[C@H](C)COC[C@H]1C", "note": "(stereo partly drawn) [Example 90, 2-[(2R,5R)-2-{[(3R,5R)-3,5-Dimethylmorpholin-4-yl]methyl}-5-methylpiperazin-1-yl]-1-[6-(1-hydroxybutyl)-3,3-dimethyl-1H,2H,3H-pyrrolo[3,2-c]pyridin-1-yl]ethan-1-one dihydrochloride]", "values": [
      {"measurement": "IC50", "setting": "[2]", "value": "< 100", "unit": "nM"}
    ]},
    {"smiles": "COC[C@@H]1COCCN1C[C@H]1CN[C@H](C)CN1CC(=O)N1CC(C)(C)c2cnc(Cc3ccc(F)cc3)cc21", "note": "[Example 96, 1-{6-[(4-Fluorophenyl)methyl]-3,3-dimethyl-1H,2H,3H-pyrrolo[3,2-c]pyridin-1-yl}-2-[(2R,5R)-2-{[(3R)-3-(methoxymethyl)morpholin-4-yl]methyl}-5-methylpiperazin-1-yl]ethan-1-one dihydrochloride]", "values": [
      {"measurement": "IC50", "setting": "[2]", "value": "< 100", "unit": "nM"}
    ]},
    {"smiles": "COC[C@]1(C)COCCN1C[C@H]1CN[C@H](C)CN1CC(=O)N1CC(C)(C)c2cnc(Cc3ccc(F)cc3F)cc21", "note": "[Example 97, 1-{6-[(2,4-Difluorophenyl)methyl]-3,3-dimethyl-1H,2H,3H-pyrrolo[3,2-c]pyridin-1-yl}-2-[(2R,5R)-2-{[(3R)-3-(methoxymethyl)-3-methylmorpholin-4-yl]methyl}-5-methylpiperazin-1-yl]ethan-1-one dihydrochloride]", "values": [
      {"measurement": "IC50", "setting": "[2]", "value": "< 100", "unit": "nM"}
    ]},
    {"smiles": "COC[C@@]1(C)COCCN1C[C@H]1CN[C@H](C)CN1CC(=O)N1CC(C)(C)c2cnc(Cc3ccc(F)cc3F)cc21", "note": "[Example 98, 1-{6-[(2,4-Difluorophenyl)methyl]-3,3-dimethyl-1H,2H,3H-pyrrolo[3,2-c]pyridin-1-yl}-2-[(2R,5R)-2-{[(3S)-3-(methoxymethyl)-3-methylmorpholin-4-yl]methyl}-5-methylpiperazin-1-yl]ethan-1-one dihydrochloride]", "values": [
      {"measurement": "IC50", "setting": "[2]", "value": "< 100", "unit": "nM"}
    ]}
  ]
}
